This is an account of results in article doi:10.1101/2024.07.30.605930 (bioRxiv, 2024).

No constants are given. Whether binding was seen depends on the method and setting. Binding seen in cells or lysates may run through a third protein. Some binding calls cover weakened binding; strength is not graded here.

In this assay the target is T1, FliF (Salmonella enterica serovar Typhimurium) (UniProt P15928).
T1 sequence: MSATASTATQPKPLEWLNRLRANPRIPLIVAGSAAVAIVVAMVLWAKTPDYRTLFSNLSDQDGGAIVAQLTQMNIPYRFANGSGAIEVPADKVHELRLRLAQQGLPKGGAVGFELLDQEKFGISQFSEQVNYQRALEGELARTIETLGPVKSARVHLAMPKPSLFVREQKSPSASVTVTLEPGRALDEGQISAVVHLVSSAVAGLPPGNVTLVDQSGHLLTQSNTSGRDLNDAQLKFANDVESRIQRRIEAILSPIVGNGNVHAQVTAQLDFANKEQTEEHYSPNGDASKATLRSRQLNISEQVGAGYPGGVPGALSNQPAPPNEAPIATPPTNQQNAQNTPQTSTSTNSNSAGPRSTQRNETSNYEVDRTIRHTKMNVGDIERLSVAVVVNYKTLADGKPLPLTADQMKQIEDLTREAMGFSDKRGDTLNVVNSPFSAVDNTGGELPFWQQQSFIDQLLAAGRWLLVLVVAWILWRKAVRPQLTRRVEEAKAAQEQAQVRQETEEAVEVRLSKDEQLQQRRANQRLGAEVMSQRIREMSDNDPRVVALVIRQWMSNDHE
The experiment in a line: co-sedimentation.

B1: FliG (protein, UniProt P0A1J9 1-331)
chain: MSNLSGTDKSVILLMTIGEDRAAEVFKHLSTREVQALSTAMANVRQISNKQLTDVLSEFEQEAEQFAALNINANEYLRSVLVKALGEERASSLLEDILETRDTTSGIETLNFMEPQSAADLIRDEHPQIIATILVHLKRSQAADILALFDERLRHDVMLRIATFGGVQPAALAELTEVLNGLLDGQNLKRSKMGGVRTAAEIINLMKTQQEEAVITAVREFDGELAQKIIDEMFLFENLVDVDDRSIQRLLQEVDSESLLIALKGAEPPLREKFLRNMSQRAADILRDDLANRGPVRLSQVENEQKAILLIVRRLAETGEMVIGSGEDTYV
Turning to B1, the binding result was “binds”.

B2: FlhA (protein, UniProt P40729 1-692)
chain: MANLVAMLRLPSNLKSTQWQILAGPILILLILSMMVLPLPAFILDLLFTFNIALSIMVLLVAMFTQRTLDFAAFPTILLFTTLLRLALNVASTRIILMEGHTGAAAAGKVVEAFGHFLVGGNFAIGIVVFIILVIINFMVITKGAGRIAEVGARFVLDGMPGKQMAIDADLNAGLIGEDEAKKRRSEVTQEADFYGSMDGASKFVRGDAIAGILIMVINVVGGLLVGVLQHGMSIGSAAESYTLLTIGDGLVAQIPALVISTAAGVIVTRVSTDQDVGEQMVGQLFSNPRVMLLAAAVLGLLGMVPGMPNLVFLLFTAALLGLAWWLRGREEKAPEEPQPVKMPENNSVVEATWNDVQLEDSLGMEVGYRLIPMVDFQQDGELLGRIRSIRKKFAQDMGFLPPVVHIRDNMDLQPARYRILMKGVEIGSGDAYPGRWLAINPGTAAGTLPGEKTVDPAFGLDAIWIESALKEQAQIQGFTVVEASTVVATHLNHLIGQFSAELFGRQEAQQLLDRVSQEMPKLTEDLVPGVVTLTTLHKVLQNLLAEKVPIRDMRTILETLAEHAPLQSDPHELTAVVRVALGRAITQQWFPGNEEVQVIGLDTALERLLLQALQGGGGLEPGLADRLLAQTQEALSRQEMLGAPPVLLVNHALRPLLSRFLRRSLPQLVVLSNLELSDNRHIRMTATIGGK
Regarding B2, the binding result is “binds”.
